# Source: publication PMC4886168, “Effects of solid‐phase extraction of plasma in measuring gut metabolic hormones in fasted and fed blood of lean and diet‐induced obese rats” (Physiological Reports, 2016)
# Marks after values point to notes of the source that are not given here.
# Legend:
# [1] = Recovery of peptides added to rat plasma, measured with multiplex magnetic bead assay; conditions: for Slope (recovery), Multiplex extracted lean: lean plasma pool, 1 mL, solid-phase extracted (OASIS HLB) before assay, extractions in triplicate; for Slope (recovery), Multiplex extracted lean / Slope (recovery), Multiplex unextracted lean: inhibitors added to thawed pool just before peptides; for Slope (recovery), Multiplex extracted lean / Slope (recovery), Multiplex extracted lean, inhibitors added at time of blood collection / Slope (recovery), Multiplex extracted obese, inhibitors added at time of blood collection: regression slope (x100 = % recovery); for Slope (recovery), Multiplex extracted lean / Slope (recovery), Multiplex extracted lean, inhibitors added at time of blood collection / Slope (recovery), Multiplex extracted obese, inhibitors added at time of blood collection / Slope (recovery), Multiplex unextracted lean: mean ± SE; for Slope (recovery), Multiplex extracted lean, inhibitors added at time of blood collection: lean plasma, enzyme inhibitors in EDTA tubes at blood collection; for Slope (recovery), Multiplex extracted lean, inhibitors added at time of blood collection / Slope (recovery), Multiplex extracted obese, inhibitors added at time of blood collection: solid-phase extracted; for Slope (recovery), Multiplex extracted obese, inhibitors added at time of blood collection: plasma of fed DIO rats, enzyme inhibitors at blood collection; for average recovery, multiplex assay, unextracted spiked lean plasma / recovery, multiplex assay, extracted lean plasma: inhibitors added just before peptides; for average recovery, multiplex assay, unextracted spiked lean plasma: slope x100; for Slope (recovery), Multiplex unextracted lean: unextracted plasma pool of fasted lean rats, multiplex standards added at three concentrations, regression slope measured vs expected (x100 = % recovery); for recovery, multiplex assay, extracted lean plasma: 1 mL lean plasma solid-phase extracted before assay
# [2] = Recovery of peptides added to rat plasma, measured with individual ELIAs; conditions: for Slope (recovery), ELIA extracted lean: lean plasma pool, 1 mL, solid-phase extracted (OASIS HLB) before assay, extractions in triplicate, inhibitors added to thawed pool just before peptides, regression slope (x100 = % recovery); for Slope (recovery), ELIA extracted lean / Slope (recovery), ELIA unextracted lean: mean ± SE; for Slope (recovery), ELIA unextracted lean: unextracted plasma pool of fasted lean rats, multiplex standards added at three concentrations, enzyme inhibitors added to thawed pool just before peptides, regression slope of measured vs expected concentration (x100 = % recovery); for mean peptide recovery, ELIA, unextracted spiked lean plasma / recovery, ELIA, extracted lean plasma: inhibitors added just before peptides; for mean peptide recovery, ELIA, unextracted spiked lean plasma: slope x100; for recovery, ELIA, extracted lean plasma: 1 mL lean plasma solid-phase extracted before assay
# [3] = second experiment, inhibitors added at time of blood collection
Molecule,"Slope (recovery), Multiplex extracted lean [1]","Slope (recovery), Multiplex extracted lean, inhibitors added at time of blood collection ([1]; second experiment)","Slope (recovery), Multiplex extracted obese, inhibitors added at time of blood collection ([1]; second experiment)","average recovery, multiplex assay, unextracted spiked lean plasma [1] [%]","Slope (recovery), Multiplex unextracted lean [1]","recovery, multiplex assay, extracted lean plasma, inhibitors at blood collection [1, 3] [%]","recovery, multiplex assay, extracted obese plasma, inhibitors at blood collection ([1]; second experiment, obese (fed DIO) plasma extracted, inhibitors added at time of blood collection) [%]","Slope (recovery), ELIA extracted lean [2]","Slope (recovery), ELIA unextracted lean [2]","mean peptide recovery, ELIA, unextracted spiked lean plasma [2] [%]","recovery, ELIA, extracted lean plasma [2] [%]","recovery, multiplex assay, extracted lean plasma [1] [%]"
CC(C)C[C@H](NC(=O)[C@H](CC(N)=O)NC(=O)[C@H](CC(N)=O)NC(=O)[C@H](CO)NC(=O)[C@H](CO)NC(=O)[C@H](CCCNC(=N)N)NC(=O)[C@@H](NC(=O)[C@H](CC(C)C)NC(=O)[C@H](Cc1ccccc1)NC(=O)[C@H](CC(N)=O)NC(=O)[C@H](C)NC(=O)[C@H](CC(C)C)NC(=O)[C@H](CCCNC(=N)N)NC(=O)[C@H](CCC(N)=O)NC(=O)[C@@H](NC(=O)[C@H](C)NC(=O)[C@@H]1CSSC[C@H](NC(=O)[C@@H](N)CCCCN)C(=O)N[C@@H](CC(N)=O)C(=O)N[C@@H]([C@@H](C)O)C(=O)N[C@@H](C)C(=O)N[C@@H]([C@@H](C)O)C(=O)N1)[C@@H](C)O)C(C)C)C(=O)NCC(=O)N1CCC[C@H]1C(=O)N[C@H](C(=O)N[C@@H](CC(C)C)C(=O)N1CCC[C@H]1C(=O)N1CCC[C@H]1C(=O)N[C@H](C(=O)N[C@@H](CC(N)=O)C(=O)N[C@H](C(=O)NCC(=O)N[C@@H](CO)C(=O)N[C@@H](CC(N)=O)C(=O)N[C@H](C(=O)N[C@@H](Cc1ccc(O)cc1)C(N)=O)[C@@H](C)O)C(C)C)[C@@H](C)O)C(C)C [Amylin],0.75 ± 0.05,0.53 ± 0.05,0.49 ± 0.04,133,1.33 ± 0.01 ^b,–,–,–,–,–,–,–
"CC[C@H](C)[C@H](NC(=O)[C@H](Cc1ccccc1)NC(=O)[C@H](CCC(=O)O)NC(=O)[C@H](CCCCN)NC(=O)[C@H](C)NC(=O)[C@H](C)NC(=O)[C@H](CCC(N)=O)NC(=O)CNC(=O)[C@H](CCC(=O)O)NC(=O)[C@H](CC(C)C)NC(=O)[C@H](Cc1ccc(O)cc1)NC(=O)[C@H](CO)NC(=O)[C@H](CO)NC(=O)[C@@H](NC(=O)[C@H](CC(=O)O)NC(=O)[C@H](CO)NC(=O)[C@@H](NC(=O)[C@H](Cc1ccccc1)NC(=O)[C@@H](NC(=O)CNC(=O)[C@H](CCC(=O)O)NC(=O)[C@H](C)NC(=O)[C@@H](N)Cc1c[nH]cn1)[C@@H](C)O)[C@@H](C)O)C(C)C)C(=O)N[C@@H](C)C(=O)N[C@@H](Cc1c[nH]c2ccccc12)C(=O)N[C@@H](CC(C)C)C(=O)N[C@H](C(=O)N[C@@H](CCCCN)C(=O)NCC(=O)N[C@@H](CCCNC(=N)N)C(N)=O)C(C)C [GLP‐1, Glucagon‐like peptide‐1]",0.52 ± 0.05,0.42 ± 0.06,0.59 ± 0.03 ^d,77,0.77 ± 0.01 ^b,42,59,–,–,–,–,–
GIP,0.56 ± 0.05,0.33 ± 0.03,0.21 ± 0.10,89,0.89 ± 0.04,–,–,0.71 ± 0.06,0.92 ± 0.04,–,–,–
Ghrelin,0.20 ± 0.02,0.47 ± 0.10,0.53 ± 0.06,26,0.26 ± 0.01 ^b,–,–,0.22 ± 0.03,0.47 ± 0.02,47,–,–
Insulin,0.27 ± 0.03 ^c,0.44 ± 0.04,0.62 ± 0.07,55,0.55 ± 0.01 ^b,–,–,0.59 ± 0.05,0.91 ± 0.01,–,59,27
"Leptin (protein, UniProt P41160 22-167, looked up, recombinant mouse leptin from National Hormones and Peptides Program; multiplex kit standard in recovery tests) Leptin: VPIQKVQDDTKTLIKTIVTRINDISHTQSVSAKQRVTGLDFIPGLHPILSLSKMDQTLAVYQQVLTSLPSQNVLQIANDLENLRDLLHLLAFSKSCSLPQTSGLQKPESLDGVLEASLYSTEVVALSRLQGSLQDILQQLDVSPEC",0.17 ± 0.05,0.08 ± 0.02,0.14 ± 0.07,29,0.29 ± 0.01 ^b,8,–,0.28 ± 0.08,1.00 ± 0.04,100,28,17
